According to the supplement of paper PMC12067093, “Discovery and optimisation of a covalent ligand for TRIM25 and its application to targeted protein ubiquitination” (Chemical Science, 2025):
The other results are listed elsewhere or left out.

Amino acid sequences for entries named in this document (tags omitted). A change or cut given only in a name is not applied to a line headed by its entry.
UniProt Q96L50: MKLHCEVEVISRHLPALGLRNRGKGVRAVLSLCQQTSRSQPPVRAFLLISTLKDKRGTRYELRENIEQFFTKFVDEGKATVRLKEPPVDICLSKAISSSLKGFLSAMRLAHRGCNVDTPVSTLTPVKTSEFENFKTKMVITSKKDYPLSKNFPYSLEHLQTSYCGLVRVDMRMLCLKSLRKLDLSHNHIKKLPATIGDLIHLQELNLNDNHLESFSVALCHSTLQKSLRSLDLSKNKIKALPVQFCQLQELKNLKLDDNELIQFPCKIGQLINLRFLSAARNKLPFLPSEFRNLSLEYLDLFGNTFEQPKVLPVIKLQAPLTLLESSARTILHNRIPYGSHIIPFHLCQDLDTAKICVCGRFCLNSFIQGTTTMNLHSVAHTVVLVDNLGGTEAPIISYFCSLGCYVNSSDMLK
UniProt Q8NF37: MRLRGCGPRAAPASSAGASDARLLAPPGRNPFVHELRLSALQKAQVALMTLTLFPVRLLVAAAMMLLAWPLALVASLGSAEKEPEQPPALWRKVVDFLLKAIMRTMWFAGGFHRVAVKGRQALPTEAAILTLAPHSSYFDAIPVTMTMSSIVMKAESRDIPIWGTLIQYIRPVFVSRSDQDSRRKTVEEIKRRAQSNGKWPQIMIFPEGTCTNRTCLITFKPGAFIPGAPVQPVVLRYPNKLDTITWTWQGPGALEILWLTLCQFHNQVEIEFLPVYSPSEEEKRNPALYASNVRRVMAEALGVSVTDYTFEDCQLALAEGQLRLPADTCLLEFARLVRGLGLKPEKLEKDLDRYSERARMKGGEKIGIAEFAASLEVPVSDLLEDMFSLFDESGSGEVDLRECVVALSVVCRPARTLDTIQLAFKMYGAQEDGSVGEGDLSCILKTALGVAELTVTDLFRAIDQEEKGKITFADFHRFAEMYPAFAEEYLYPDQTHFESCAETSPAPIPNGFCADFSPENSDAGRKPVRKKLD
UniProt Q9Y4Z0: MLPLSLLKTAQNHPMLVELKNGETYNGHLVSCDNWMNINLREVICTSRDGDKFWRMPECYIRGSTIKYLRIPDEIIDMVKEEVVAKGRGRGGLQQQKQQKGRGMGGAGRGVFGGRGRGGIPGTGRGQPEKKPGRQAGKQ
UniProt O60711: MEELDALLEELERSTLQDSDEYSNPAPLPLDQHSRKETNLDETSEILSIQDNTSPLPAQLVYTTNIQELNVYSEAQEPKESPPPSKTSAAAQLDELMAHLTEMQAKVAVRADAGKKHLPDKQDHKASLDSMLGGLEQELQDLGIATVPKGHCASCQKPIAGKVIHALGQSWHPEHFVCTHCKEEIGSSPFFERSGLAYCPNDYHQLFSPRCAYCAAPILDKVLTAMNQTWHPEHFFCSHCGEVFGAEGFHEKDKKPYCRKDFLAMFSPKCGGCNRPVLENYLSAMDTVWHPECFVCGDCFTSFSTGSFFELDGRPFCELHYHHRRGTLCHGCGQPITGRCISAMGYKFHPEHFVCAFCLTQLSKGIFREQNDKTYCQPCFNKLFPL
UniProt P36776: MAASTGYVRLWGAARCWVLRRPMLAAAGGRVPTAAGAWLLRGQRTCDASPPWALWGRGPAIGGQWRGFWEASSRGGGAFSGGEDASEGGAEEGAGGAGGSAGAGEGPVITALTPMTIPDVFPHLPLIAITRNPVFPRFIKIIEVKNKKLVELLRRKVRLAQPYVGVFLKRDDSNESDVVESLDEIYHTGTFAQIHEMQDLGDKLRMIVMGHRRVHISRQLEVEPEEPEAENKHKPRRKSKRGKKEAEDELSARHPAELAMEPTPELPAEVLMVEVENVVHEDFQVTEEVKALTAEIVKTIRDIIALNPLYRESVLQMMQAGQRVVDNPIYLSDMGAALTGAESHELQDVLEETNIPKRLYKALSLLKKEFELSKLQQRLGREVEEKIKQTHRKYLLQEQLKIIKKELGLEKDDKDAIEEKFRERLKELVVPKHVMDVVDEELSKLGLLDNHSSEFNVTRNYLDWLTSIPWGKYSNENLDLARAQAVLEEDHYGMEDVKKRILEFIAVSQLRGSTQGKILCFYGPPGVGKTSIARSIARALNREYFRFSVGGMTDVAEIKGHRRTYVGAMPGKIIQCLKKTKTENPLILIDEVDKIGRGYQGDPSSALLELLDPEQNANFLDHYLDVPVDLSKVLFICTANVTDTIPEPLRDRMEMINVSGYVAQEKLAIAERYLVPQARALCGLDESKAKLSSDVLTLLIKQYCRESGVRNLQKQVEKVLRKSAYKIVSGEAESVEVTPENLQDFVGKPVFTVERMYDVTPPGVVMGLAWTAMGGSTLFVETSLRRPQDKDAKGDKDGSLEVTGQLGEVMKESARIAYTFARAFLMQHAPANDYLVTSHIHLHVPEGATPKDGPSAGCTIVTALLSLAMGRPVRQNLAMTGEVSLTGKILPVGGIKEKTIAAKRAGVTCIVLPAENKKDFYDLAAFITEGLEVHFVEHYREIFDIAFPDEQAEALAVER
UniProt Q96II8: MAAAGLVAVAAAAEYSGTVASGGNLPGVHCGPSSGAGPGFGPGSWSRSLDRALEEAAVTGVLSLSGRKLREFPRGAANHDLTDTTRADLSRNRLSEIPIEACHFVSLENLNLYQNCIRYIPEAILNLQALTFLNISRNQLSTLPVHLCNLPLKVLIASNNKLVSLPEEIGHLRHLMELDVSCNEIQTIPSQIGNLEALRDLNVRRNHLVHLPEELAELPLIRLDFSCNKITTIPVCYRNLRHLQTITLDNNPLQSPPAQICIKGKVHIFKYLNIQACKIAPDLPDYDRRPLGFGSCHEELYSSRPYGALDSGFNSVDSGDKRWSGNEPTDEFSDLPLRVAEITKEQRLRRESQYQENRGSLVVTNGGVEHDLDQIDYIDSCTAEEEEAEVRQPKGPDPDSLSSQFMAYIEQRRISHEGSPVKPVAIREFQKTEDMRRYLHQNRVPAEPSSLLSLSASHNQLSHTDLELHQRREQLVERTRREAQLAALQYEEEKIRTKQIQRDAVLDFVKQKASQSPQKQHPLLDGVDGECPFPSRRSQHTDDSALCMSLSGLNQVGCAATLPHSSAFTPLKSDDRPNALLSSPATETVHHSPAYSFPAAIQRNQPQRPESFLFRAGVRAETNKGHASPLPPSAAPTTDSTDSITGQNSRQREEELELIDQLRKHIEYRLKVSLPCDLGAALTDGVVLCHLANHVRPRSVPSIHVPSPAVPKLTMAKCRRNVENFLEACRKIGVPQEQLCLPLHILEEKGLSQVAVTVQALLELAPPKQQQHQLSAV
UniProt Q9H9A6: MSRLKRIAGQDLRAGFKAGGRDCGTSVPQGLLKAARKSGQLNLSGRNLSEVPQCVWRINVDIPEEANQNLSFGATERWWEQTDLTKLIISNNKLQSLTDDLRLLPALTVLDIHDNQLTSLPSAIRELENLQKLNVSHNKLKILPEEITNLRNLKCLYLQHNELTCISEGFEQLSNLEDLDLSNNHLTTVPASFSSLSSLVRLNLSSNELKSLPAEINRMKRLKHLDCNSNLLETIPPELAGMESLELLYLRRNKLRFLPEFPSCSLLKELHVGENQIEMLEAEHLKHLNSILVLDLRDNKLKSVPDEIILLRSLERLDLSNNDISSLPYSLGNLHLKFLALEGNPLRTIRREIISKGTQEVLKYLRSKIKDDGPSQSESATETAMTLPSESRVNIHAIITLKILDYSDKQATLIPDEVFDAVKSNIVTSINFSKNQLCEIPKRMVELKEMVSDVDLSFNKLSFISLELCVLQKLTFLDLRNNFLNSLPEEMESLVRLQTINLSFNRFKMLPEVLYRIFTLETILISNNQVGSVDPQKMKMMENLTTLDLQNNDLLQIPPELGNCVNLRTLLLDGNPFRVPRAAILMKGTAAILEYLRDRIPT
UniProt P20700: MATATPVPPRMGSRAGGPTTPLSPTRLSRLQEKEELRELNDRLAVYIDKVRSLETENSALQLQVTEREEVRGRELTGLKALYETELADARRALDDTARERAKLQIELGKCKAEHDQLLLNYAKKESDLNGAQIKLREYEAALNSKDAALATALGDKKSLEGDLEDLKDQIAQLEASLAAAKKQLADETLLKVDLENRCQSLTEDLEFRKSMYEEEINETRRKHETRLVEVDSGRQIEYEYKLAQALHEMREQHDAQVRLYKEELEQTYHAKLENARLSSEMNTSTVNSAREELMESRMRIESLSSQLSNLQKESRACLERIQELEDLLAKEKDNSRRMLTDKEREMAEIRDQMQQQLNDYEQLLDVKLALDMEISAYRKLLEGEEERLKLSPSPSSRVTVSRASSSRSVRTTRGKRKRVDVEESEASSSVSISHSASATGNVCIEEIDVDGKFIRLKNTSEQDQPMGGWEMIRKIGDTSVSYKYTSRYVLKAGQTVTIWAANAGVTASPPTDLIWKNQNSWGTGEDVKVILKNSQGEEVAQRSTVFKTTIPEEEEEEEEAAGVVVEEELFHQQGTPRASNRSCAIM
UniProt Q86WU2: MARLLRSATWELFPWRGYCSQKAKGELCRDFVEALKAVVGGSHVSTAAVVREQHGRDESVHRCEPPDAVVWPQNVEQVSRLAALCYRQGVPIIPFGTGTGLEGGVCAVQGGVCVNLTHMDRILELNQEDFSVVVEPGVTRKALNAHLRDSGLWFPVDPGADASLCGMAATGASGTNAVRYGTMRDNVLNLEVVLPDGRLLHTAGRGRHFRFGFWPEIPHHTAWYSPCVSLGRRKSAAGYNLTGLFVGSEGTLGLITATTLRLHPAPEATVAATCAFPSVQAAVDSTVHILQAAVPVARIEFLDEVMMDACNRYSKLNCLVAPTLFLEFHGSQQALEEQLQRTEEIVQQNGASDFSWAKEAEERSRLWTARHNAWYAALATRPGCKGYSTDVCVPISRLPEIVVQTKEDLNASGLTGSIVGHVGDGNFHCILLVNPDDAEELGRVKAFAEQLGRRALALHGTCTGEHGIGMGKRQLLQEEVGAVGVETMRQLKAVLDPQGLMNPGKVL
UniProt P33241, whole entry, looked up: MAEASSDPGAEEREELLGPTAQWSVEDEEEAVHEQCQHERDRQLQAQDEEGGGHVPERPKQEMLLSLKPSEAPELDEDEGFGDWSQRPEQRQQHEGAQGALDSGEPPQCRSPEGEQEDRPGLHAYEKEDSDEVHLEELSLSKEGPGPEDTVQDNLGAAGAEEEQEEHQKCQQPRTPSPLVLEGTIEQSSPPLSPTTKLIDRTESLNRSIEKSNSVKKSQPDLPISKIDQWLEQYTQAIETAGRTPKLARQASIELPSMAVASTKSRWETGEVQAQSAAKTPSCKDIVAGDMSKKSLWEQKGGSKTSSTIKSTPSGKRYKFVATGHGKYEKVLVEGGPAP

Compound: CC1Cc2ccccc2N1C(=O)C1CCCN(C1)C(=O)CCl (mixture of isomers) [TRIM25 ligand 11 (diastereomer mixture)]
Assay: probe-labelled cysteine peptide fold change vs DMSO (competition) (log2 fold change); higher = less target engagement (more negative = stronger competition)
Conditions: 10 µM; THP-1; incubation time: 4 h
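Also: competitive chemoproteomic profiling in live THP-1 cells with an iodoacetamide desthiobiotin (IA-DTB) probe, comparing probe-labelled peptide intensities in compound-treated cells against DMSO-treated controls.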

Target | probe-labelled cysteine peptide fold change
LMO7_Q8WWI1_98_ASLENGVLLCDLINK (UniProt Q8WWI1) | 0.347
LGALS9_O00182_74_FEDGGYVVCNTR (UniProt O00182) | 0.1
LRR1_Q96L50_5_LHCEVEVISR (UniProt Q96L50) | 0.141
LPCAT1_Q8NF37_216_TCLITFKPGAFIPGAPVQPVVLR (UniProt Q8NF37) | -0.0044
LSM4_Q9Y4Z0_45_EVICTSR (UniProt Q9Y4Z0) | -0.0921
LPXN_O60711_152_GHCASCQKPIAGK (UniProt O60711) | -0.241
LPXN_O60711_178+181_VIHALGQSWHPEHFVCTHCK (UniProt O60711) | 0.141
LONP1_P36776_909_AGVTCIVLPAENKK (UniProt P36776) | -0.204
LRCH3_Q96II8_689_VSLPCDLGAALTDGVVLCHLANHVRPR (UniProt Q96II8) | -0.0635
LPXN_O60711_152+155_GHCASCQKPIAGK (UniProt O60711) | -0.173
LRRC40_Q9H9A6_23_DCGTSVPQGLLK (UniProt Q9H9A6) | 0.0344
LRPPRC_P42704_1043_DILIACR (UniProt P42704) | -0.000295
LRPPRC_P42704_721+722_AKYESDMVTGGYAALINLCCR (UniProt P42704) | -0.00502
LMNB1_P20700_110_CKAEHDQLLLNYAK (UniProt P20700) | -0.194
LDHD_Q86WU2_462_ALALHGTCTGEHGIGMGKR (UniProt Q86WU2) | -0.122
LSP1_P33241_109_QQHEGAQGALDSGEPPQCR (UniProt P33241) | 0.218

Nothing new here: an excerpt of the list.
Target | probe-labelled cysteine peptide fold change
LPXN_O60711_178+181_VIHALGQSWHPEHFVCTHCK (UniProt O60711) | 0.141
LONP1_P36776_909_AGVTCIVLPAENKK (UniProt P36776) | -0.204
